Experimental data reported in the supplement of paper PMC10849652.
The other results are listed elsewhere or left out.

Protein sequences, listed by entry. Tags and fused reporters are not part of them. Lines headed by an entry give the natural chain unless they say otherwise; changes in a name come on top.
UniProt Q68D85: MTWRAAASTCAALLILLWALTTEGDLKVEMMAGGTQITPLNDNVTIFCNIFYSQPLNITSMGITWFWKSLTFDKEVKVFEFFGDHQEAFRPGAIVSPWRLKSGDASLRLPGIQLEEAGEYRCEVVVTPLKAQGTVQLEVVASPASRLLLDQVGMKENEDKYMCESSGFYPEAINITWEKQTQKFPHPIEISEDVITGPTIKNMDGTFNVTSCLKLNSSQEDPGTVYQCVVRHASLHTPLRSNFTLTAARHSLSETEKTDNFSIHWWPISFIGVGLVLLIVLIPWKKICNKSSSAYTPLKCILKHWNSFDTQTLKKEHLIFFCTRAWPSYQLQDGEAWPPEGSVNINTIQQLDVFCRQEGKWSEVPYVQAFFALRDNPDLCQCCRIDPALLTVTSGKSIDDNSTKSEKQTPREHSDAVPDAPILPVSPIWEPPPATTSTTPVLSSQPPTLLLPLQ
UniProt Q5TEU4: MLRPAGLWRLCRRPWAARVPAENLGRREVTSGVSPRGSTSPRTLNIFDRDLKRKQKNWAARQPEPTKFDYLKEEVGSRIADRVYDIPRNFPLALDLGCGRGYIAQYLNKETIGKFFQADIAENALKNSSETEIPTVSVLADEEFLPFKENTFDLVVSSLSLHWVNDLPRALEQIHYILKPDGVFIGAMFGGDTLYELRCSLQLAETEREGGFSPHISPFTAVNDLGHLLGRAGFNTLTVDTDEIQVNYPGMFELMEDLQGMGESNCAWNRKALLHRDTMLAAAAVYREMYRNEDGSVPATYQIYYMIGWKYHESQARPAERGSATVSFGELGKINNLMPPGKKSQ
UniProt Q9Y375: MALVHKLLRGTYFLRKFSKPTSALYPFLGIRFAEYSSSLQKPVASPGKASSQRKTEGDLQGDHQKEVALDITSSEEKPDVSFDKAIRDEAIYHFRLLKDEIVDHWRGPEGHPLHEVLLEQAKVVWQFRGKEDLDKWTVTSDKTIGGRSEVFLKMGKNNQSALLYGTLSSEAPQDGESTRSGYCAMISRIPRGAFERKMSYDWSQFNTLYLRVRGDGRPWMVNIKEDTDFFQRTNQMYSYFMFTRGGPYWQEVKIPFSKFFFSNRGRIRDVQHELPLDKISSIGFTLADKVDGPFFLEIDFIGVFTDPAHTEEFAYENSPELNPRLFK
UniProt Q16718, whole entry, looked up: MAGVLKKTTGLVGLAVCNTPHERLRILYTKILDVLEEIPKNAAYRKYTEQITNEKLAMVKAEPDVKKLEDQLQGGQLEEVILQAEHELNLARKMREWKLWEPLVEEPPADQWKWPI
UniProt Q9H0A0: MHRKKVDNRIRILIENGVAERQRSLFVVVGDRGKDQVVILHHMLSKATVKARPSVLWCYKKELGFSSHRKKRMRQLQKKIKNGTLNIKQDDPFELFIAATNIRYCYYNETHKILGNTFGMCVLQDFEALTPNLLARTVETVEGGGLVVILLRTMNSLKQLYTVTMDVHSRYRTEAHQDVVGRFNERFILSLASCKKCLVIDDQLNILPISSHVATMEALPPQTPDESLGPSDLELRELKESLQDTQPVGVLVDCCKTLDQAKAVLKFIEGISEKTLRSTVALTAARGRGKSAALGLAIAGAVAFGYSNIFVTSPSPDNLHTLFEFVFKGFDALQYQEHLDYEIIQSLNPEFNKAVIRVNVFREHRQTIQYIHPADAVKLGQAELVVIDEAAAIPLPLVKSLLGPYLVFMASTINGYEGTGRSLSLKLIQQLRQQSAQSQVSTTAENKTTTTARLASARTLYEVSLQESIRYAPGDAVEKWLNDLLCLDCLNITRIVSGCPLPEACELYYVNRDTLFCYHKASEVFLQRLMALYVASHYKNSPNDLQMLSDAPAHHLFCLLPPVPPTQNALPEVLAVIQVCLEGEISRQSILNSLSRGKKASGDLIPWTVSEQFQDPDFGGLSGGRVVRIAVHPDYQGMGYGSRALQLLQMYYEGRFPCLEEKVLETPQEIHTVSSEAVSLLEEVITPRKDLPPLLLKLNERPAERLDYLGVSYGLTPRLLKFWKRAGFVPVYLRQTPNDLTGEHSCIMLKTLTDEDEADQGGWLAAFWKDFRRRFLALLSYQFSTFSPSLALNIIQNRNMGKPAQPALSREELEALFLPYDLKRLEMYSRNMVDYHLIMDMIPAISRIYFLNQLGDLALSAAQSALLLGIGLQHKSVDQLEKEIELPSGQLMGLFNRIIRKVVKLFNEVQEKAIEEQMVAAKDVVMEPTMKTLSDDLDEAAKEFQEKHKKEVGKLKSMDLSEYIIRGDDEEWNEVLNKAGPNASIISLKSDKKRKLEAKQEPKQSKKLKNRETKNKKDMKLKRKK
UniProt O75376, whole entry, looked up: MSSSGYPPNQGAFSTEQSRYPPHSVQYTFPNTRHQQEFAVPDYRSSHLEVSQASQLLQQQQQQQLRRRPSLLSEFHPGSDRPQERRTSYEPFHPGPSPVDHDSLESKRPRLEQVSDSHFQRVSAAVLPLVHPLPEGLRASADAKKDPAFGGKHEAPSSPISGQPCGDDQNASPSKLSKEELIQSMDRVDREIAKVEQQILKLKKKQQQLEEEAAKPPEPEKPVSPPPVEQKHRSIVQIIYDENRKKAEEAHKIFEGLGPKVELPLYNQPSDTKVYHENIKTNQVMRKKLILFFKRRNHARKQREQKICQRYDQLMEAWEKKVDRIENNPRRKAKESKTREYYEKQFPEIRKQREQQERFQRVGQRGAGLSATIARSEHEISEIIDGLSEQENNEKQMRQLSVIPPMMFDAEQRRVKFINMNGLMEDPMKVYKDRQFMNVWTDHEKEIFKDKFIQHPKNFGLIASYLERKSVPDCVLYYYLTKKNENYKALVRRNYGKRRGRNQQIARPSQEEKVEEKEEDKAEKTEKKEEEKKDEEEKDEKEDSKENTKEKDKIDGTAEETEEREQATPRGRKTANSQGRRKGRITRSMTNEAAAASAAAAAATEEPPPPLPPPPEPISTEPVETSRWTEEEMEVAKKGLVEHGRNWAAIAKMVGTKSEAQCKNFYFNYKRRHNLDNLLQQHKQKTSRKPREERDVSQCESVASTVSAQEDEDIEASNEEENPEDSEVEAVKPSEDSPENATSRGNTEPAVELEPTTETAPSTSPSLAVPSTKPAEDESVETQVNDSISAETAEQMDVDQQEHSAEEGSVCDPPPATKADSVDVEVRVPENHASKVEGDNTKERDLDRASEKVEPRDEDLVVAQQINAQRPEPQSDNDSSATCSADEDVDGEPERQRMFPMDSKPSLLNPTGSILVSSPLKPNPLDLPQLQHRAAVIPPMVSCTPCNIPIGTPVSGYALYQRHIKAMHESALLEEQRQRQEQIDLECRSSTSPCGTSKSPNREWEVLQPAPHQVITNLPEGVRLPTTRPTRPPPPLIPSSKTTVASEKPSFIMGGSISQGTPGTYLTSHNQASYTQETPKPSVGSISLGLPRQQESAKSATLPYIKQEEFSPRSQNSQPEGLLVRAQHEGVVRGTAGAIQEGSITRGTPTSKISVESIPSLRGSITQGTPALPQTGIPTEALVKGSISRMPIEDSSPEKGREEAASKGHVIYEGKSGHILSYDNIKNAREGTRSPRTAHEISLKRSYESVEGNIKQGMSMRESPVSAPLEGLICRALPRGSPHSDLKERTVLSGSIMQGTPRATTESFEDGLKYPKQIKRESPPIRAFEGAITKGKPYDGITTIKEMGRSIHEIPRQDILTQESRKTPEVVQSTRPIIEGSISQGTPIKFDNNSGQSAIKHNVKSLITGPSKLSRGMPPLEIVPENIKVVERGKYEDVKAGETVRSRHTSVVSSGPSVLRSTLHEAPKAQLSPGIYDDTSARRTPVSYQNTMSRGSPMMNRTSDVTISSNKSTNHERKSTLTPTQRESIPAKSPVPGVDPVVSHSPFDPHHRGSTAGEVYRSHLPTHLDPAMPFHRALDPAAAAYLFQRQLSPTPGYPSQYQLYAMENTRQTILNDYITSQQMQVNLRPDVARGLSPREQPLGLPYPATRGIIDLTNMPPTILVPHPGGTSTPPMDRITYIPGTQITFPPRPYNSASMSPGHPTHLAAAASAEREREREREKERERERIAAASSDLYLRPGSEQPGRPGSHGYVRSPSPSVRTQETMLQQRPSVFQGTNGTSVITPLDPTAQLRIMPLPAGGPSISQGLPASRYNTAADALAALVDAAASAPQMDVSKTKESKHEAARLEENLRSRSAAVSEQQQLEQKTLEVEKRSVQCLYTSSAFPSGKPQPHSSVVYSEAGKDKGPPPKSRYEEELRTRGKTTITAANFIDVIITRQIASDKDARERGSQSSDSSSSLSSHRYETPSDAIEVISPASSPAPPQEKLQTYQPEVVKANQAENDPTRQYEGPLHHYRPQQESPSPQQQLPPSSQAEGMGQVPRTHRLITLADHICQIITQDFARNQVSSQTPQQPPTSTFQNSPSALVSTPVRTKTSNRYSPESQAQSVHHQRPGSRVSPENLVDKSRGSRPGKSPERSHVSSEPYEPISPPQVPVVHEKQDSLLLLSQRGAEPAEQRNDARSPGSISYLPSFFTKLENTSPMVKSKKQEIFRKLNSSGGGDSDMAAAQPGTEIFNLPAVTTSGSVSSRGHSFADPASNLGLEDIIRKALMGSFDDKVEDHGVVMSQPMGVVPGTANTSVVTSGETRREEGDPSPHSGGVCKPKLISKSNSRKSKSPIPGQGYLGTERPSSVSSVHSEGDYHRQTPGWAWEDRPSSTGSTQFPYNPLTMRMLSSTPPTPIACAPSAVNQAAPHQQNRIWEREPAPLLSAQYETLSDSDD
UniProt O14777: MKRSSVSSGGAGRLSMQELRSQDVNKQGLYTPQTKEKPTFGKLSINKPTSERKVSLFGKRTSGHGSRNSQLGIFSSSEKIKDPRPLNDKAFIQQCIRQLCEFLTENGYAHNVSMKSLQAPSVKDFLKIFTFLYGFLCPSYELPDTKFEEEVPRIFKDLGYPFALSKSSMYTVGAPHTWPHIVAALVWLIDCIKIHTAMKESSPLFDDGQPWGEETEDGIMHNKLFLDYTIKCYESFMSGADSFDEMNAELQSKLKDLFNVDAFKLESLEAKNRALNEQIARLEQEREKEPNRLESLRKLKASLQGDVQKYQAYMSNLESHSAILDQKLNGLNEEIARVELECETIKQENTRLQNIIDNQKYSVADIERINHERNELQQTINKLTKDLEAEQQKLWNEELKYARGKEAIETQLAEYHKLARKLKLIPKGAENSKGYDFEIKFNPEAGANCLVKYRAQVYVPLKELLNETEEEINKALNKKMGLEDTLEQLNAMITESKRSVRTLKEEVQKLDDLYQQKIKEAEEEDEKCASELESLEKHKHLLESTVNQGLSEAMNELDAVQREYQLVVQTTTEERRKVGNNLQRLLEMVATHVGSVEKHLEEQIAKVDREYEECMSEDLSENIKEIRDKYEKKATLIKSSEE
UniProt O00217, whole entry, looked up: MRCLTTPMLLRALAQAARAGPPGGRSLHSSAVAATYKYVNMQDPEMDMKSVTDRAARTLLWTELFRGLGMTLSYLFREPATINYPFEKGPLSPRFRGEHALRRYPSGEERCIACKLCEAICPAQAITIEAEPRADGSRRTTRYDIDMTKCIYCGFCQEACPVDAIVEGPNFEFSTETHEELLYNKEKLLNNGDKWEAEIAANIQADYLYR
UniProt Q9NR45: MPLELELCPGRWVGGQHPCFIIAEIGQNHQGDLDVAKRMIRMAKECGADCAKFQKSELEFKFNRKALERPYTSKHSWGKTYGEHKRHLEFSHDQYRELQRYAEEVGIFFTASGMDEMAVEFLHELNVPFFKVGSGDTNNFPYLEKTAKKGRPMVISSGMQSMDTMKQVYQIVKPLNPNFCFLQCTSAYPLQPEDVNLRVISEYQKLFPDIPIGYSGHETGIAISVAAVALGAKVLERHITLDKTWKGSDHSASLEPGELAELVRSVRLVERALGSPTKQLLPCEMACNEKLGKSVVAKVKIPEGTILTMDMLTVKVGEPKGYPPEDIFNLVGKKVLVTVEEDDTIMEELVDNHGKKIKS
UniProt Q9UN36: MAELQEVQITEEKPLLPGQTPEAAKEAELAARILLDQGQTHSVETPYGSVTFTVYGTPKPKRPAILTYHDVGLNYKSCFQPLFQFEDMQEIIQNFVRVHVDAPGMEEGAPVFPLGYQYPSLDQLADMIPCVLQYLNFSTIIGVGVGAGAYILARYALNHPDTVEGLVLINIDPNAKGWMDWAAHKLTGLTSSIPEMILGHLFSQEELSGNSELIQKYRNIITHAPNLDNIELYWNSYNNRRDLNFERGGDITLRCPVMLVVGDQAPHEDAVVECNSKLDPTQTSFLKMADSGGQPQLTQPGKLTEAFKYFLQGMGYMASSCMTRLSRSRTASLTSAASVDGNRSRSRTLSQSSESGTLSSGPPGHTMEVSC
UniProt Q86Y39, whole entry, looked up: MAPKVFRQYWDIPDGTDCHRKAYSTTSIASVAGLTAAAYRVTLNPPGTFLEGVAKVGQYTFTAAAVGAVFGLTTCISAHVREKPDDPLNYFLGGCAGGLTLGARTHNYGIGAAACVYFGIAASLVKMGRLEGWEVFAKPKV
UniProt Q9BRA0: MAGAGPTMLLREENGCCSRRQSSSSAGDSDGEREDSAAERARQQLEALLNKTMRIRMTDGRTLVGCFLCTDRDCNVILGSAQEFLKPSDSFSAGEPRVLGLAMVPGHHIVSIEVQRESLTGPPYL

How the values were obtained:
Assay in all cases: log2 fold change, soluble protein after heating vs DMSO (PISA); higher = thermal stabilisation; K562 cells, 10 uM, 30 min; active = over 0.2 and 3.5 SD of the protein, either way, in both replicates (recomputed)
[1] = compound: NC(=O)Nc1cc(-c2cccc(F)c2)sc1C(=O)N[C@H]1CCCNC1
Summary of the method: (§1)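 Soluble protein was quantified by TMTpro 16plex LC-MS/MS after channel sums were equalised. It was obtained as the supernatant after 21,000xg for 90 min from pooled aliquots of K562 cells (2×10^6 cells/mL, 10 μM compound, 30 min) heated for 3 min across 48°C-58°C and extracted in PBS with 0.5% NP-40 at 4°C. Thermal stability values are relative to control samples and come from duplicates. They are given as log2 fold changes.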

[2] = compound: NC(=O)c1cnc(N[C@@H]2CCCC[C@@H]2N)nc1Nc1cccc(-n2nccn2)c1
Summary of the method: as §1

[3] = compound: NC1(c2ccc(-c3nc4ccn5c(=O)[nH]nc5c4cc3-c3ccccc3)cc2)CCC1
Summary of the method: as §1

[4] = compound: NCC(=O)Nc1ccc(-n2nc(C(F)(F)F)cc2-c2ccc3c(ccc4ccccc43)c2)cc1
Summary of the method: as §1

[5] = compound: Nc1ccccc1NC(=O)c1ccc(CNC(=O)OCc2cccnc2)cc1 [entinostat]
Summary of the method: as §1

[6] = compound: O=C(CCCCCCC(=O)Nc1ccccc1)NO [vorinostat]
Summary of the method: as §1

[7] = compound: O=C(CCCCCCNC(=O)c1cnc(N(c2ccccc2)c2ccccc2Cl)nc1)NO [citarinostat]
Summary of the method: as §1

[8] = compound: O=C(O)c1ccc2c(c1)nc(Nc1cccc(Cl)c1)c1ccncc12 [silmitasertib]
Summary of the method: as §1

[9] = compound: O=C1NC(=O)C(c2cnc3ccccn23)=C1c1cn2c3c(cc(F)cc13)CN(C(=O)N1CCCCC1)CC2
Summary of the method: as §1

[10] = compound: c1cc(OCCN2CCCCC2)cc(-c2n[nH]c3ccc(-c4nnc[nH]4)cc23)c1
Summary of the method: as §1

Measured: log2 fold change

NCR3LG1 (UniProt Q68D85)
inactive: [1] -0.183 | [2] -0.062 | [3] -0.126 | [4] -0.036 | [5] -0.043 | [6] 0.09 | [7] 0.045 | [8] -0.003 | [9] 0.051 | [10] -0.171

NDUFAF5 (UniProt Q5TEU4)
inactive: [1] 0.011 | [2] -0.027 | [3] -0.066 | [4] -0.026 | [5] 0.038 | [6] 0.069 | [7] 0.014 | [8] 0.071 | [9] -0.074 | [10] -0.036

NDUFAF1 (UniProt Q9Y375)
inactive: [1] 0.02 | [2] 0.003 | [3] -0.032 | [4] -0.074 | [5] -0.03 | [6] 0 | [7] 0.09 | [8] 0 | [9] 0.019 | [10] -0.06

NECAP2 (UniProt Q9NVZ3)
inactive: [1] -0.029 | [2] 0 | [3] -0.086 | [4] -0.02 | [5] 0.055 | [6] 0.006 | [7] 0.062 | [8] -0.042 | [9] 0 | [10] -0.012

NDUFA5 (UniProt Q16718)
inactive: [1] -0.071 | [2] -0.086 | [3] -0.058 | [4] -0.076 | [5] 0.078 | [6] -0.028 | [7] 0.025 | [8] -0.025 | [9] -0.225 | [10] -0.064

NCBP1 (UniProt Q09161)
inactive: [1] -0.034 | [2] -0.006 | [3] -0.076 | [4] -0.051 | [5] 0.003 | [6] -0.007 | [7] 0.104 | [8] 0.034 | [9] -0.039 | [10] -0.033

NAT10 (UniProt Q9H0A0)
inactive: [1] 0.202 | [2] 0.1 | [3] 0.265 | [4] 0.054 | [5] -0.006 | [6] 0.104 | [7] -0.183 | [8] 0.101 | [9] 0.236 | [10] -0.079

NCOR1 (UniProt O75376)
inactive: [1] 0.096 | [2] -0.057 | [3] -0.005 | [4] -0.072 | [5] 0.007 | [6] -0.059 | [7] -0.028 | [8] 0.001 | [9] -0.044 | [10] -0.024

NAA10 (UniProt P41227)
inactive: [1] -0.026 | [2] 0.046 | [3] -0.022 | [4] 0.018 | [5] -0.001 | [6] 0.037 | [7] 0.034 | [8] -0.034 | [9] -0.01 | [10] -0.024

NCAPD3 (UniProt P42695)
inactive: [1] -0.035 | [2] 0.039 | [3] -0.06 | [4] 0.045 | [5] 0.034 | [6] 0.048 | [7] 0.09 | [8] 0.14 | [9] 0.071 | [10] -0.073

NEBL isoform 2 (UniProt O76041)
inactive: [1] -0.045 | [2] -0.039 | [3] 0.048 | [4] -0.006 | [5] -0.053 | [6] -0.068 | [7] 0.009 | [8] 0.015 | [9] -0.046 | [10] -0.052

NDC80 (UniProt O14777)
inactive: [1] 0.016 | [2] -0.117 | [3] -0.121 | [4] 0.01 | [5] 0.036 | [6] 0.049 | [7] -0.015 | [8] 0.184 | [9] 0.359 | [10] -0.057

NDUFS8 (UniProt O00217)
inactive: [1] -0.049 | [2] -0.042 | [3] -0.163 | [4] -0.018 | [5] 0.065 | [6] 0.019 | [7] 0.024 | [8] -0.019 | [9] -0.052 | [10] -0.041

NANS (UniProt Q9NR45)
inactive: [1] 0.043 | [2] -0.05 | [3] 0.02 | [4] -0.032 | [5] 0.014 | [6] 0.116 | [7] 0.032 | [8] -0.002 | [9] -0.011 | [10] 0

NECAP1 (UniProt Q8NC96)
inactive: [1] -0.05 | [2] -0.024 | [3] -0.078 | [4] -0.03 | [5] 0.016 | [6] 0.039 | [7] 0.046 | [8] -0.045 | [9] -0.059 | [10] -0.008

Reprinted from the listing (2 entries):
NCOR1 (UniProt O75376)
inactive: [1] 0.096 | [2] -0.057 | [3] -0.005 | [4] -0.072 | [5] 0.007 | [6] -0.059 | [7] -0.028 | [8] 0.001 | [9] -0.044 | [10] -0.024

NAA10 (UniProt P41227)
inactive: [1] -0.026 | [2] 0.046 | [3] -0.022 | [4] 0.018 | [5] -0.001 | [6] 0.037 | [7] 0.034 | [8] -0.034 | [9] -0.01 | [10] -0.024

More records:

NDRG2 (UniProt Q9UN36)
inactive: [1] -0.015 | [2] 0.018 | [3] -0.018 | [4] -0.099 | [5] 0 | [6] 0.021 | [7] 0.057 | [8] -0.027 | [9] -0.024 | [10] -0.08

NAXE (UniProt Q8NCW5)
inactive: [1] 0.001 | [2] -0.007 | [3] 0.043 | [4] 0 | [5] 0.03 | [6] -0.012 | [7] 0.013 | [8] -0.029 | [9] -0.092 | [10] -0.019

NDUFA11 (UniProt Q86Y39)
inactive: [1] -0.034 | [2] -0.003 | [3] -0.073 | [4] -0.057 | [5] -0.003 | [6] 0.046 | [7] 0.025 | [8] 0.006 | [9] 0.052 | [10] -0.075

NAPA (UniProt P54920)
inactive: [1] 0.016 | [2] -0.013 | [3] -0.056 | [4] 0.04 | [5] 0.009 | [6] 0.016 | [7] 0.027 | [8] 0.014 | [9] -0.026 | [10] -0.05

NDST1 (UniProt P52848)
inactive: [1] -0.144 | [2] 0.026 | [3] 0.001 | [4] -0.04 | [5] 0.003 | [6] -0.18 | [7] -0.061 | [8] -0.022 | [9] -0.058 | [10] 0.128

NAPG (UniProt Q99747)
inactive: [1] -0.027 | [2] -0.087 | [3] -0.085 | [4] -0.094 | [5] 0.102 | [6] 0.117 | [7] 0.075 | [8] 0.032 | [9] -0.029 | [10] -0.017

NCKAP1 isoform 2 (UniProt Q9Y2A7)
inactive: [1] 0.066 | [2] -0.009 | [3] -0.12 | [4] -0.025 | [5] 0.024 | [6] 0.063 | [7] 0.015 | [8] -0.029 | [9] -0.055 | [10] 0.046

NAA38 isoform 2 (UniProt Q9BRA0)
inactive: [1] -0.064 | [2] -0.029 | [3] -0.105 | [4] 0.026 | [5] -0.009 | [6] -0.041 | [7] -0.152 | [8] 0.017 | [9] 0.038 | [10] -0.264

NDUFB10 (UniProt O96000)
inactive: [1] -0.062 | [2] -0.06 | [3] -0.054 | [4] -0.022 | [5] -0.034 | [6] -0.053 | [7] 0.031 | [8] 0.021 | [9] -0.018 | [10] -0.006

NCL (UniProt P19338)
inactive: [1] 0.015 | [2] 0.024 | [3] 0.331 | [4] 0.156 | [5] -0.093 | [6] -0.018 | [7] -0.105 | [8] 0.2 | [9] 0.147 | [10] -0.171

NA, A0A0B4J2A0
inactive: [1] -0.025 | [2] 0.029 | [3] -0.061 | [4] 0.031 | [5] 0.029 | [6] 0.05 | [7] 0.029 | [8] 0.017 | [9] -0.059 | [10] -0.012

NDFIP1 (UniProt Q9BT67)
inactive: [1] 0.104 | [2] -0.16 | [3] -0.029 | [4] -0.249 | [5] -0.291 | [6] -0.051 | [7] 0.025 | [8] 0.27 | [9] 0.352 | [10] 0.007

NAA16 (UniProt Q6N069)
inactive: [1] -0.044 | [2] 0.038 | [3] -0.032 | [4] 0.036 | [5] -0.016 | [6] 0.043 | [7] -0.005 | [8] -0.012 | [9] -0.001 | [10] -0.092

NCAPD2 (UniProt Q15021)
inactive: [1] -0.109 | [2] -0.075 | [3] -0.149 | [4] -0.045 | [5] 0.084 | [6] 0.058 | [7] 0.078 | [8] 0.135 | [9] 0.014 | [10] -0.002

NAA25 (UniProt Q14CX7)
inactive: [1] -0.012 | [2] -0.065 | [3] -0.108 | [4] -0.047 | [5] -0.008 | [6] 0.04 | [7] 0.047 | [8] -0.005 | [9] 0 | [10] -0.02
